# This is one part of the list. Single values are uncertain, as repeats are few or missing.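 Pooled together, 41 HAP1 clones carry intronic fluorescent tags on 61 cancer-associated proteins, and each clone is recognized by its imaging pattern. Measurements are benchmarked against DMSO-treated control wells. dBET6, a BRD4 degrader, served as the positive control.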 Where a SMILES comes first, the peptide text is derived from it. The star is where a group is joined. Cbz = O=C(OCc1ccccc1)*
# Amino acid sequences for entries named in this document (tags omitted).
# UniProt O14980, whole entry: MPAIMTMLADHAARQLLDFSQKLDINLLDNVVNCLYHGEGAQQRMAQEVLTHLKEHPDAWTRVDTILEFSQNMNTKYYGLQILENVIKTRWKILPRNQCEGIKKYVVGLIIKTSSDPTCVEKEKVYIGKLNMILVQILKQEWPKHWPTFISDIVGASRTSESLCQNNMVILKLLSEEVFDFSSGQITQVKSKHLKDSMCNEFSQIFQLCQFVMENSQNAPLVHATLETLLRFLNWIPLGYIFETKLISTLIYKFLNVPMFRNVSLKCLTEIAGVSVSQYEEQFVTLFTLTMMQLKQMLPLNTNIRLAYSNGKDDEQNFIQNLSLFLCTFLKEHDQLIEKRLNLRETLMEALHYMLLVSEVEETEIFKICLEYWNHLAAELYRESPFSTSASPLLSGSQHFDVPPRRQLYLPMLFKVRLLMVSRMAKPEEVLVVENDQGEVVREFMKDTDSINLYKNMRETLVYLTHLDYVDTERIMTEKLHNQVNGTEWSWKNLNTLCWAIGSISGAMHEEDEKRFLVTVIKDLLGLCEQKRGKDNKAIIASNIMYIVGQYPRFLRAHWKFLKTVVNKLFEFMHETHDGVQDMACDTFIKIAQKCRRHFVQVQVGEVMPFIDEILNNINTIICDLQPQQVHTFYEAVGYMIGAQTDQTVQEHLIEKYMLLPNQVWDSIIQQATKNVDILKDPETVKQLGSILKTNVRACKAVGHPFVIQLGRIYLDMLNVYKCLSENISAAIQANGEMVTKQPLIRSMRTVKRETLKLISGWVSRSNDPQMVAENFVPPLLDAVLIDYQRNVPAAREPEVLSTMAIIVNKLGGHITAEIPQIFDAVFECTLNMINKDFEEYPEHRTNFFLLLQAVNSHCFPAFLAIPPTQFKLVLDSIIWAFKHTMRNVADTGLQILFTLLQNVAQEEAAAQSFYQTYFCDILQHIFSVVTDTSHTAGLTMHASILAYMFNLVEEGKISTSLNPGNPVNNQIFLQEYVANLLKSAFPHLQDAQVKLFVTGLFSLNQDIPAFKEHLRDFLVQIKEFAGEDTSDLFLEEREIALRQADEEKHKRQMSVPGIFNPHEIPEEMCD
# Molecular target: XPO1 (intron 15 mScarlet tag, HAP1) (UniProt O14980)
# Assay: XPO1 fluorescence intensity change vs DMSO (log2 fold change); higher = more XPO1 protein
# Settings: 6 h
row,SMILES,XPO1 fluorescence intensity change (log2)
1,CN(C)c1ccc(C(=NC(=O)c2cccc(S(=O)(=O)N3CC4(C)CC3CC(C)(C)C4)c2)c2ccc(N(C)C)cc2)cc1 (stereo not drawn) (10 µM),-0.137
2,N[C@H]1CC[C@H](N[C@@H]2C[C@H]2c2ccccc2)CC1 (10 µM),-0.00995
3,CCc1ccc(NC(=O)c2nnc(CCl)s2)cc1 (10 µM),-0.00549
4,CCOc1ncccc1CNC(=O)c1cc2c(nc3sccn32)s1 (10 µM),-0.113
5,O=C(CSc1nc2ccccc2[nH]1)Nc1ccc(Br)cn1 (0.1 µM),0.0196
6,O=C(Nc1cccnc1N1CCCC1)c1csc(-c2ccsc2)n1 (10 µM),-0.121
7,O=C(CCCn1c(=O)oc2ccccc21)Nc1cccc(-c2ccsc2)c1 (0.1 µM),-0.0942
8,CC(C)CC(=O)Nc1ccc(NC(=O)c2ccc(CSC(F)F)o2)cc1 (10 µM),0.0738
9,Cc1cc(C)c(S(=O)(=O)NCCc2c(C)[nH]c3ccc(Br)cc23)c(C)c1 (10 µM),-0.0944
10,CCOC(=O)C1=C(CCl)NC(=O)NC1c1ccccc1OC(F)F (stereo not drawn) (10 µM),-0.0551
11,N#CC(C#N)=C1C=CC=CN1/C(=C/c1ccccc1)C(=O)c1ccccc1 (10 µM),0.0372
12,O=c1c2ccccc2nc(CCl)n1Cc1ccco1 (10 µM),-0.162
13,CCOc1ccc(C(=O)NCc2cnn(Cc3ccccc3)c2)cn1 (10 µM),0.0877
14,Cc1cc(C(=O)N(C)Cc2cnn(C)c2)c(C)n1Cc1ccccc1 (10 µM),0.109
15,O=C(NCc1ccc(F)cc1)c1nnc(CCl)s1 (10 µM),0.332
16,O=C(Nc1ccc(Oc2ccncc2)cc1)c1cccc2ccccc12 (0.1 µM),-0.0268
17,O=C(Nc1ccc(S(=O)(=O)C(F)F)cc1)N1CCc2sccc2C1 (0.1 µM),-0.122
18,CCOc1c(Cl)cc(C(=O)Nc2ccc(-c3nccs3)cc2)cc1OC (1 µM),-0.0201
19,CC1CCc2c(sc3nc(CCCl)nc(N)c23)C1 (stereo not drawn) (10 µM),-0.0281
20,O=C(Nc1ccc(C(=O)N2CCCC2)cc1)c1ccc(Br)o1 (10 µM),-0.00364

row,SMILES,XPO1 fluorescence intensity change (log2)
1,Cc1cn2c(CC(=O)Nc3ccc(C(F)(F)F)cc3)csc2n1 (10 µM),-0.00665
2,O=C(Nc1ccc(-c2ccccc2)cn1)c1cccc(Cl)c1 (10 µM),-0.00165
3,CC(C)c1ccccc1Nc1nc(-c2ccc(S(N)(=O)=O)cc2)cs1 (10 µM),-0.442
4,COc1ccc(Cl)cc1NS(=O)(=O)c1ccc(OC)c(C)c1C (10 µM),0.0127
5,Cn1ccnc1COc1ccc(C(=O)Nc2nc(C(C)(C)C)cs2)cc1 (1 µM),-0.136
6,Nc1nc2[nH]cc(CCc3ccc(C(=O)N[C@@H](CCC(=O)O)C(=O)O)cc3)c2c(=O)[nH]1 [pemetrexed] (1 µM),0.0613
7,COc1ccccc1N1CCN(C(=O)c2cn(C)c(=O)c3ccccc23)CC1 (1 µM),-0.264
8,O=C(/C=C/c1ccccc1Cl)c1ccc(O)c(CCCl)c1 (10 µM),0.0937
9,O=C1CN(C(=O)Cc2ccc(Br)cc2)c2ccccc2N1 (10 µM),-0.08
10,CC(C)C[C@@H](C=O)NC(=O)[C@H](CC(C)C)NC(=O)[C@H](CC(C)C)NC(=O)OCc1ccccc1 (10 µM) (Cbz-Leu-Leu-Leu-aldehyde),-0.082
11,CC(NCCN1CCNCC1)c1cc(C(C)(C)C)cc2c1CCC2(C)C (stereo not drawn) (10 µM),0.165
12,CC(Sc1ncnc2sccc12)C(=O)NC(=O)NCc1ccccc1 (stereo not drawn) (10 µM),-0.308
13,CCCCn1c(=O)[nH]c(=O)c2c1nc(CCl)n2C (10 µM),0.166
14,FC(F)Oc1ccccc1-c1noc(CCl)n1 (10 µM),-0.296
15,CC(C)n1ncc2cc(C(=O)Nc3cccc4c3CCCC4)cnc21 (10 µM),-0.0271
16,CCc1noc(CC)c1CNC(C)c1cnc2ccsc2c1 (stereo not drawn) (10 µM),-0.0553
17,Cc1nn(-c2ccccc2)c(C)c1CNC(=O)c1cc(-c2cccnc2)on1 (10 µM),0.0806
18,Cc1sc(NC(=O)CCNC(=O)Cc2ccccc2)nc1-c1ccc(F)cc1 (10 µM),-0.0901
19,COc1cccc(-n2cnnc2SCC(=O)NCc2ccc(Cl)cc2)c1 (10 µM),0.0652

# Molecular target: BRD4 (intron 10 mScarlet tag, HAP1) (UniProt O60885)
# Assay: BRD4 median nuclear fluorescence intensity change vs DMSO (log2 fold change); higher = more BRD4 protein
# Settings: 6 h
row,SMILES,BRD4 median nuclear fluorescence intensity change (log2)
1,CN(C)c1ccc(C(=NC(=O)c2cccc(S(=O)(=O)N3CC4(C)CC3CC(C)(C)C4)c2)c2ccc(N(C)C)cc2)cc1 (stereo not drawn) (10 µM),-0.000554
2,N[C@H]1CC[C@H](N[C@@H]2C[C@H]2c2ccccc2)CC1 (10 µM),0.0828
3,CCc1ccc(NC(=O)c2nnc(CCl)s2)cc1 (10 µM),0.0754
4,CCOc1ncccc1CNC(=O)c1cc2c(nc3sccn32)s1 (10 µM),-0.00275
5,O=C(CSc1nc2ccccc2[nH]1)Nc1ccc(Br)cn1 (0.1 µM),-0.00479
6,O=C(Nc1cccnc1N1CCCC1)c1csc(-c2ccsc2)n1 (10 µM),-0.0388
7,O=C(CCCn1c(=O)oc2ccccc21)Nc1cccc(-c2ccsc2)c1 (0.1 µM),0.0224
8,CC(C)CC(=O)Nc1ccc(NC(=O)c2ccc(CSC(F)F)o2)cc1 (10 µM),0.0401
9,Cc1cc(C)c(S(=O)(=O)NCCc2c(C)[nH]c3ccc(Br)cc23)c(C)c1 (10 µM),-0.0231
10,CCOC(=O)C1=C(CCl)NC(=O)NC1c1ccccc1OC(F)F (stereo not drawn) (10 µM),0.0225
11,N#CC(C#N)=C1C=CC=CN1/C(=C/c1ccccc1)C(=O)c1ccccc1 (10 µM),0.0546
12,O=c1c2ccccc2nc(CCl)n1Cc1ccco1 (10 µM),0.099
13,CCOc1ccc(C(=O)NCc2cnn(Cc3ccccc3)c2)cn1 (10 µM),0.0669
14,Cc1cc(C(=O)N(C)Cc2cnn(C)c2)c(C)n1Cc1ccccc1 (10 µM),0.0568
15,O=C(NCc1ccc(F)cc1)c1nnc(CCl)s1 (10 µM),0.0741
16,O=C(Nc1ccc(Oc2ccncc2)cc1)c1cccc2ccccc12 (0.1 µM),0.144
17,O=C(Nc1ccc(S(=O)(=O)C(F)F)cc1)N1CCc2sccc2C1 (0.1 µM),0.00664
18,CCOc1c(Cl)cc(C(=O)Nc2ccc(-c3nccs3)cc2)cc1OC (1 µM),0.0816
19,CC1CCc2c(sc3nc(CCCl)nc(N)c23)C1 (stereo not drawn) (10 µM),0.0428
20,O=C(Nc1ccc(C(=O)N2CCCC2)cc1)c1ccc(Br)o1 (10 µM),0.0565

# An excerpt of these results, with bars between the fields.
row | SMILES | BRD4 median nuclear fluorescence intensity change (log2)
15 | O=C(NCc1ccc(F)cc1)c1nnc(CCl)s1 (10 µM) | 0.0741
16 | O=C(Nc1ccc(Oc2ccncc2)cc1)c1cccc2ccccc12 (0.1 µM) | 0.144
17 | O=C(Nc1ccc(S(=O)(=O)C(F)F)cc1)N1CCc2sccc2C1 (0.1 µM) | 0.00664

# Single values from the entries so far:
# Under BRD4 median nuclear fluorescence intensity change (log2), `Cc1cc(C(=O)N(C)Cc2cnn(C)c2)c(C)n1Cc1ccccc1` (10 µM) has 0.0568
# Under BRD4 median nuclear fluorescence intensity change (log2), `N[C@H]1CC[C@H](N[C@@H]2C[C@H]2c2ccccc2)CC1` (10 µM) has 0.0828

# The list goes on:

row,SMILES,BRD4 median nuclear fluorescence intensity change (log2)
1,Cc1cn2c(CC(=O)Nc3ccc(C(F)(F)F)cc3)csc2n1 (10 µM),0.0598
2,O=C(Nc1ccc(-c2ccccc2)cn1)c1cccc(Cl)c1 (10 µM),0.0048
3,CC(C)c1ccccc1Nc1nc(-c2ccc(S(N)(=O)=O)cc2)cs1 (10 µM),-0.0824
4,COc1ccc(Cl)cc1NS(=O)(=O)c1ccc(OC)c(C)c1C (10 µM),0.0024
5,Cn1ccnc1COc1ccc(C(=O)Nc2nc(C(C)(C)C)cs2)cc1 (1 µM),0.148
6,Nc1nc2[nH]cc(CCc3ccc(C(=O)N[C@@H](CCC(=O)O)C(=O)O)cc3)c2c(=O)[nH]1 [pemetrexed] (1 µM),-0.0162
7,COc1ccccc1N1CCN(C(=O)c2cn(C)c(=O)c3ccccc23)CC1 (1 µM),0.16
8,O=C(/C=C/c1ccccc1Cl)c1ccc(O)c(CCCl)c1 (10 µM),1.59e-05
9,O=C1CN(C(=O)Cc2ccc(Br)cc2)c2ccccc2N1 (10 µM),0.166
10,CC(C)C[C@@H](C=O)NC(=O)[C@H](CC(C)C)NC(=O)[C@H](CC(C)C)NC(=O)OCc1ccccc1 (10 µM) (Cbz-Leu-Leu-Leu-aldehyde),-0.168
11,CC(NCCN1CCNCC1)c1cc(C(C)(C)C)cc2c1CCC2(C)C (stereo not drawn) (10 µM),0.0796
12,CC(Sc1ncnc2sccc12)C(=O)NC(=O)NCc1ccccc1 (stereo not drawn) (10 µM),-0.121
13,CCCCn1c(=O)[nH]c(=O)c2c1nc(CCl)n2C (10 µM),0.0615
14,FC(F)Oc1ccccc1-c1noc(CCl)n1 (10 µM),0.0447
15,CC(C)n1ncc2cc(C(=O)Nc3cccc4c3CCCC4)cnc21 (10 µM),-0.0451
16,CCc1noc(CC)c1CNC(C)c1cnc2ccsc2c1 (stereo not drawn) (10 µM),0.0434
17,Cc1nn(-c2ccccc2)c(C)c1CNC(=O)c1cc(-c2cccnc2)on1 (10 µM),0.0212
18,Cc1sc(NC(=O)CCNC(=O)Cc2ccccc2)nc1-c1ccc(F)cc1 (10 µM),-0.0286
19,COc1cccc(-n2cnnc2SCC(=O)NCc2ccc(Cl)cc2)c1 (10 µM),-0.125
